Source: article PMC4558130

By UniProt entry, the sequences of proteins in these tests, tags left out. Where a name states a change or a piece, a line headed by the entry shows the natural chain unless it says otherwise.
UniProt P55042: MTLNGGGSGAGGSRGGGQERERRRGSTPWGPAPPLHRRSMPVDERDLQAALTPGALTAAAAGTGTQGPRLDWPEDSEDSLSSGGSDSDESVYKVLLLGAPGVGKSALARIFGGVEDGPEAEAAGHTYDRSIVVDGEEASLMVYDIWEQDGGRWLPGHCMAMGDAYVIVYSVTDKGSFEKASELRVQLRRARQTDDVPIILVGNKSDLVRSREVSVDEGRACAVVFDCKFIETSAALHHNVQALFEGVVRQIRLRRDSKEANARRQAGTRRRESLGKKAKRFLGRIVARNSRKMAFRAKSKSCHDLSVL
UniProt Q04206: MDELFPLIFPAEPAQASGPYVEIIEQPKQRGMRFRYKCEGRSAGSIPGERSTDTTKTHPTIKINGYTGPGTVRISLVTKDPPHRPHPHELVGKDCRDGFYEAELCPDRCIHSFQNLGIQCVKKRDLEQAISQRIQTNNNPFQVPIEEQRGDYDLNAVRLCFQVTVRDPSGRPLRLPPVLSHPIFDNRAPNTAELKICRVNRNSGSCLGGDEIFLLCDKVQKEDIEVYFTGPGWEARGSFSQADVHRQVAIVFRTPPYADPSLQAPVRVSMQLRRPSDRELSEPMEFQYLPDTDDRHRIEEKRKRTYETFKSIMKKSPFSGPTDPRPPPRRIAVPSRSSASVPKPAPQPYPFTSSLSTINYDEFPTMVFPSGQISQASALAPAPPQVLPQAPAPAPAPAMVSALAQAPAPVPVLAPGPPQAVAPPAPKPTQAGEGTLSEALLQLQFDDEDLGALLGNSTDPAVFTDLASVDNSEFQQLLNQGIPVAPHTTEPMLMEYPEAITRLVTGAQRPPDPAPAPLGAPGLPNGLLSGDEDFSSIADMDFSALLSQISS

Molecular target: RRAD-ΔC249-Flag (human) (UniProt P55042)
Test: co-IP; H1299 cells expressing RRAD-Flag (WT or deletion mutant) and p65-HA; lysates in NP-40 buffer (50mM Tris-HCl pH 7.5, 1% NP-40, 150mM NaCl, 5 mM EDTA); IP with anti-Flag M2 or anti-HA overnight; Western blot

- binding: binds
Substance: p65-HA (from UniProt Q04206 1-551)

These are yes or no findings as the source states them, for the method shown. Binding seen in cells or lysates may run through a third protein. A result given as binding can be weak or reduced; the word gives no strength.
